No constants are given. Whether binding was seen depends on the method and setting. Binding seen in cells or lysates may run through a third protein. A yes stands for co-enrichment or nearness to the bait. Other partners may have been found. Sequences can lack the tags named with a protein.
T1: 14-3-3 epsilon:GFP (Arabidopsis thaliana) (UniProt P48347)
T1 sequence: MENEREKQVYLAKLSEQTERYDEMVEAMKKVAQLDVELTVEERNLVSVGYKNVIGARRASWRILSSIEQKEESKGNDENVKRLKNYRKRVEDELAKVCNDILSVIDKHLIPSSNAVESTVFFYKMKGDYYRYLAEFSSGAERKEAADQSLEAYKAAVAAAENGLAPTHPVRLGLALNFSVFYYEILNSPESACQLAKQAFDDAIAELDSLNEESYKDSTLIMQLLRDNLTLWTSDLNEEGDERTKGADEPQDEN

B1: NPH3, endogenous in Arabidopsis seedlings (protein, UniProt Q9FMF5 1-746)
chain: MMWESESDGGVGVGGGGGREYGDGVLSSNKHGGVKTDGFELRGQSWFVATDIPSDLLVKIGDMNFHLHKYPLLSRSGKMNRLIYESRDPDPTILILDDLPGGPEAFELASKFCYGVPVDLTATNISGLRCAAEYLEMTEDLEEGNLIFKTEAFLSYVVLSSWRDSILVLKSCEKLSPWAENLQIVRRCSESIAWKACSNPKGIRWAYTGKAPSPSTTNFAGSSPRWNESKDSSFYCSPSRNTNSQPVPPDWWFEDVSILRIDHFVRVITAIKVKGMRFELLGAVIMHYAGKWLPGLIKEGGVAIAPAMSSAIGGGLGLGGDEMSISCGSNSSGGSSGPDWKGGLHMVLSAGKTNGHQDSVACLAGLGISPKDQRMIVESLISIIPPQKDSVTCSFLLRLLRAANMLKVAPALITELEKRVGMQFEQATLQDLLIPGYNNKGETMYDVDLVQRLLEHFLVQEQTEGSSPSRMSPSPSQSMYADIPRGNNNNGGGGGGNNQNAKMRVARLVDSYLTEVARDRNLPLTKFQVLAEALPESARTCDDGLYRAIDSYLKAHPTLSEHERKRLCRVMDCQKLSMDACMHAAQNERLPLRVVVQVLFSEQVKISNALANTSLKESTTLGEAMGTYQPMIPNRKTLIEATPQSFQEGWAAAKKDINTLKFELETVKTKYVELQNEMEVMQRQFEKTGKVKNTPSSSAWTSGWKKLSKLTKMSGQESHDISSGGEQAGVDHPPPRKPRRWRNSIS
B2: cytosolic invertase 1 (protein, UniProt Q9LQF2 1-551)
chain: MEGVGLRAVGSHCSLSEMDDLDLTRALDKPRLKIERKRSFDERSMSELSTGYSRHDGIHDSPRGRSVLDTPLSSARNSFEPHPMMAEAWEALRRSMVFFRGQPVGTLAAVDNTTDEVLNYDQVFVRDFVPSALAFLMNGEPDIVKHFLLKTLQLQGWEKRVDRFKLGEGVMPASFKVLHDPIRETDNIVADFGESAIGRVAPVDSGFWWIILLRAYTKSTGDLTLSETPECQKGMKLILSLCLAEGFDTFPTLLCADGCSMIDRRMGVYGYPIEIQALFFMALRSALSMLKPDGDGREVIERIVKRLHALSFHMRNYFWLDHQNLNDIYRFKTEEYSHTAVNKFNVMPDSIPEWVFDFMPLRGGYFVGNVGPAHMDFRWFALGNCVSILSSLATPDQSMAIMDLLEHRWAELVGEMPLKICYPCLEGHEWRIVTGCDPKNTRWSYHNGGSWPVLLWQLTAACIKTGRPQIARRAVDLIESRLHRDCWPEYYDGKLGRYVGKQARKYQTWSIAGYLVAKMLLEDPSHIGMISLEEDKLMKPVIKRSASWPQL
B3: phytochrome A (protein, UniProt P14712 1-1122)
chain: MSGSRPTQSSEGSRRSRHSARIIAQTTVDAKLHADFEESGSSFDYSTSVRVTGPVVENQPPRSDKVTTTYLHHIQKGKLIQPFGCLLALDEKTFKVIAYSENASELLTMASHAVPSVGEHPVLGIGTDIRSLFTAPSASALQKALGFGDVSLLNPILVHCRTSAKPFYAIIHRVTGSIIIDFEPVKPYEVPMTAAGALQSYKLAAKAITRLQSLPSGSMERLCDTMVQEVFELTGYDRVMAYKFHEDDHGEVVSEVTKPGLEPYLGLHYPATDIPQAARFLFMKNKVRMIVDCNAKHARVLQDEKLSFDLTLCGSTLRAPHSCHLQYMANMDSIASLVMAVVVNEEDGEGDAPDATTQPQKRKRLWGLVVCHNTTPRFVPFPLRYACEFLAQVFAIHVNKEVELDNQMVEKNILRTQTLLCDMLMRDAPLGIVSQSPNIMDLVKCDGAALLYKDKIWKLGTTPSEFHLQEIASWLCEYHMDSTGLSTDSLHDAGFPRALSLGDSVCGMAAVRISSKDMIFWFRSHTAGEVRWGGAKHDPDDRDDARRMHPRSSFKAFLEVVKTRSLPWKDYEMDAIHSLQLILRNAFKDSETTDVNTKVIYSKLNDLKIDGIQELEAVTSEMVRLIETATVPILAVDSDGLVNGWNTKIAELTGLSVDEAIGKHFLTLVEDSSVEIVKRMLENALEGTEEQNVQFEIKTHLSRADAGPISLVVNACASRDLHENVVGVCFVAHDLTGQKTVMDKFTRIEGDYKAIIQNPNPLIPPIFGTDEFGWCTEWNPAMSKLTGLKREEVIDKMLLGEVFGTQKSCCRLKNQEAFVNLGIVLNNAVTSQDPEKVSFAFFTRGGKYVECLLCVSKKLDREGVVTGVFCFLQLASHELQQALHVQRLAERTAVKRLKALAYIKRQIRNPLSGIMFTRKMIEGTELGPEQRRILQTSALCQKQLSKILDDSDLESIIEGCLDLEMKEFTLNEVLTASTSQVMMKSNGKSVRITNETGEEVMSDTLYGDSIRLQQVLADFMLMAVNFTPSGGQLTVSASLRKDQLGRSVHLANLEIRLTHTGAGIPEFLLNQMFGTEEDVSEEGLSLMVSRKLVKLMNGDVQYLRQAGKSSFIITAELAAANK
B4: sucrose phosphate synthase 1 (protein, UniProt Q94BT0 1-1043)
chain: MAGNDWVNSYLEAILDVGQGLDDARSSPSLLLRERGRFTPSRYFVEEVITGYDETDLHRSWVKAVATRSPQERNTRLENMCWRIWNLARQKKQHEEKEAQRLAKRRLEREKGRREATADMSEEFSEGEKGDIISDISTHGESTKPRLPRINSAESMELWASQQKGNKLYLVLISLHGLIRGENMELGRDSDTGGQVKYVVELARALGSMPGVYRVDLLTRQVSSPDVDYSYGEPTEMLTPRDSEDFSDEMGESSGAYIVRIPFGPKDKYIPKELLWPHIPEFVDGAMSHIMQMSNVLGEQVGVGKPIWPSAIHGHYADAGDATALLSGALNVPMLLTGHSLGRDKLEQLLRQGRLSKEEINSTYKIMRRIEGEELSLDVSEMVITSTRQEIDEQWRLYDGFDPILERKLRARIKRNVSCYGRFMPRMVKIPPGMEFNHIVPHGGDMEDTDGNEEHPTSPDPPIWAEIMRFFSNSRKPMILALARPDPKKNITTLVKAFGECRPLRELANLALIMGNRDGIDEMSSTSSSVLLSVLKLIDKYDLYGQVAYPKHHKQSDVPDIYRLAAKSKGVFINPAIIEPFGLTLIEAAAHGLPMVATKNGGPVDIHRVLDNGLLVDPHDQQSISEALLKLVADKHLWAKCRQNGLKNIHQFSWPEHCKTYLSRITSFKPRHPQWQSDDGGDNSEPESPSDSLRDIQDISLNLKFSFDGSGNDNYMNQEGSSMDRKSKIEAAVQNWSKGKDSRKMGSLERSEVNSGKFPAVRRRKFIVVIALDFDGEEDTLEATKRILDAVEKERAEGSVGFILSTSLTISEVQSFLVSGGLNPNDFDAFICNSGSDLHYTSLNNEDGPFVVDFYYHSHIEYRWGGEGLRKTLIRWASSLNEKKADNDEQIVTLAEHLSTDYCYTFTVKKPAAVPPVRELRKLLRIQALRCHVVYSQNGTRINVIPVLASRIQALRYLFVRWGIDMAKMAVFVGESGDTDYEGLLGGLHKSVVLKGVSCSACLHANRSYPLTDVISFESNNVVHASPDSDVRDALKKLELLKD

biological target: T1, 14-3-3 epsilon:GFP (Arabidopsis thaliana); assay: affinity purification with mass spectrometry; 3-day-old etiolated Arabidopsis seedlings expressing 14-3-3 epsilon:GFP (native promoter), kept in darkness or irradiated with blue light (1 μmol m^-2 s^-1, 30 min); GFP-Trap beads, lysis buffer 50 mM Tris pH 7.5, 150 mM NaCl, 1% Triton X-100; LC-MS/MS; UBQ10::GFP as control; two biological replicates

Binder	binding
B1	binds
B2	binds
B3	binds
B4	binds
